According to the supplement of paper PMC11732987, “Enantioselective OTUD7B fragment discovery through chemoproteomics screening and high-throughput optimisation” (Communications Chemistry, 2025):
The other results are listed elsewhere or left out. The data scatter; read single values as rough.

The chains behind the UniProt entries cited, without tags or fusion partners. Where a name states a change or a piece, a line headed by the entry shows the natural chain unless it says otherwise. Residues count along the entry.
UniProt Q6P4H8: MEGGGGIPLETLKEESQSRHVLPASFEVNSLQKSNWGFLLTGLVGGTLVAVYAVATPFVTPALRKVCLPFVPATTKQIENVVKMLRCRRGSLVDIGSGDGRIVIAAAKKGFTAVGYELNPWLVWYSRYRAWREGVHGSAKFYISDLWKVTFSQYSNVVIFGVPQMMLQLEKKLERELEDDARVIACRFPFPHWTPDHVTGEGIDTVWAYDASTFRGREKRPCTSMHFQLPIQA
UniProt P54132: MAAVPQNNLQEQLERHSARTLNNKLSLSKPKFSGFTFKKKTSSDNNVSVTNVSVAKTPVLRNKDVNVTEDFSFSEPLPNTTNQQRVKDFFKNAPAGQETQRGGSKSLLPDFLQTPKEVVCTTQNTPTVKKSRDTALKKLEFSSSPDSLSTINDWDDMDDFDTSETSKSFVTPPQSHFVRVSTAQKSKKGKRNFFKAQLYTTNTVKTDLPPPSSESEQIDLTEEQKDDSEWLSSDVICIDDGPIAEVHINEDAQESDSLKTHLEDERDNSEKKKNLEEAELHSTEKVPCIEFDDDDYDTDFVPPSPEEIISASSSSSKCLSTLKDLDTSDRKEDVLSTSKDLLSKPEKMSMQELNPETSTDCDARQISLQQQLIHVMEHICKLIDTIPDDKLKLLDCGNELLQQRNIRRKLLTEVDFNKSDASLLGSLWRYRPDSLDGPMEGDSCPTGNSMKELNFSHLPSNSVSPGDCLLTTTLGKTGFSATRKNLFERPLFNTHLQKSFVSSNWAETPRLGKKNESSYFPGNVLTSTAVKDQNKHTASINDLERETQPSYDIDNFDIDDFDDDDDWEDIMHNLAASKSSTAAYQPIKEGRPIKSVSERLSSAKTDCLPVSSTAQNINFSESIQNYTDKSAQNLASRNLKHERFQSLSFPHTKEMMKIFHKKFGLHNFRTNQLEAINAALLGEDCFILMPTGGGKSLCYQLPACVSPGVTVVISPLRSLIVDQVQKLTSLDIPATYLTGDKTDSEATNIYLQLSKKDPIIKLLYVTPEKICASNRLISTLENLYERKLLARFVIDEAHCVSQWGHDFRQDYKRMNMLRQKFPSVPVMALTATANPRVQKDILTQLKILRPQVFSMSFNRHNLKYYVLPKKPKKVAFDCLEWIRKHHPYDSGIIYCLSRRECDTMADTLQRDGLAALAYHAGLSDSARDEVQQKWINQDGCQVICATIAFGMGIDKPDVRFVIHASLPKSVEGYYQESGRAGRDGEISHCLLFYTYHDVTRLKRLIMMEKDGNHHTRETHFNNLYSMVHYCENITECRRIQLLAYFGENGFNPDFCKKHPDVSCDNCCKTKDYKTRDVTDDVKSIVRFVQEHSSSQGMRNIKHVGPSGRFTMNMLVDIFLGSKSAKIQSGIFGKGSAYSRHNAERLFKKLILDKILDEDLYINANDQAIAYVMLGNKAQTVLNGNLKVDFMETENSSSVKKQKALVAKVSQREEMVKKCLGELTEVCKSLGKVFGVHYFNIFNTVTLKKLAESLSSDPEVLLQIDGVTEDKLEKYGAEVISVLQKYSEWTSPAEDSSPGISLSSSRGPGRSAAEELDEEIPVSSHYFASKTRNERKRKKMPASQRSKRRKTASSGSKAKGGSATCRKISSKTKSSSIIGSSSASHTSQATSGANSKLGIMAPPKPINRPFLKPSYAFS
UniProt Q8WXE1: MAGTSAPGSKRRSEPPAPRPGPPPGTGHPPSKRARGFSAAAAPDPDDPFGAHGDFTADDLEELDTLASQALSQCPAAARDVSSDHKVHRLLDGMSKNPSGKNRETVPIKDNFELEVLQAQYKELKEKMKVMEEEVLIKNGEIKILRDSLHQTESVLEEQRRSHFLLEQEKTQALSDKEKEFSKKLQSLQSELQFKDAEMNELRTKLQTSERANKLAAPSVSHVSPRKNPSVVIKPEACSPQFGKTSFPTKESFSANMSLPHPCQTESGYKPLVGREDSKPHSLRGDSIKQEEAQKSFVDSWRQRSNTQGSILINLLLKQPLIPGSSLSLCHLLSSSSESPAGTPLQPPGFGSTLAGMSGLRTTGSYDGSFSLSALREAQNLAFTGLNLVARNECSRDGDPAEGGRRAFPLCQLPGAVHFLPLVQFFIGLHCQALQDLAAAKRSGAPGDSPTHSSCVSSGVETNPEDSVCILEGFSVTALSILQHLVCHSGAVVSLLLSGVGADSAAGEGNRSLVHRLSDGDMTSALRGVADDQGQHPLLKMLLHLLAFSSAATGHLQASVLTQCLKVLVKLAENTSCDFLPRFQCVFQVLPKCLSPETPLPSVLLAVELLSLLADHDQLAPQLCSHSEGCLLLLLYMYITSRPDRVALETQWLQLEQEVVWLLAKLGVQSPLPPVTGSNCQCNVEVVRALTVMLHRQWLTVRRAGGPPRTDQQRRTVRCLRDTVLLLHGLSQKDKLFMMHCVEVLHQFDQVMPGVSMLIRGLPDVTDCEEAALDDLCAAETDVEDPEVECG
UniProt Q76L83: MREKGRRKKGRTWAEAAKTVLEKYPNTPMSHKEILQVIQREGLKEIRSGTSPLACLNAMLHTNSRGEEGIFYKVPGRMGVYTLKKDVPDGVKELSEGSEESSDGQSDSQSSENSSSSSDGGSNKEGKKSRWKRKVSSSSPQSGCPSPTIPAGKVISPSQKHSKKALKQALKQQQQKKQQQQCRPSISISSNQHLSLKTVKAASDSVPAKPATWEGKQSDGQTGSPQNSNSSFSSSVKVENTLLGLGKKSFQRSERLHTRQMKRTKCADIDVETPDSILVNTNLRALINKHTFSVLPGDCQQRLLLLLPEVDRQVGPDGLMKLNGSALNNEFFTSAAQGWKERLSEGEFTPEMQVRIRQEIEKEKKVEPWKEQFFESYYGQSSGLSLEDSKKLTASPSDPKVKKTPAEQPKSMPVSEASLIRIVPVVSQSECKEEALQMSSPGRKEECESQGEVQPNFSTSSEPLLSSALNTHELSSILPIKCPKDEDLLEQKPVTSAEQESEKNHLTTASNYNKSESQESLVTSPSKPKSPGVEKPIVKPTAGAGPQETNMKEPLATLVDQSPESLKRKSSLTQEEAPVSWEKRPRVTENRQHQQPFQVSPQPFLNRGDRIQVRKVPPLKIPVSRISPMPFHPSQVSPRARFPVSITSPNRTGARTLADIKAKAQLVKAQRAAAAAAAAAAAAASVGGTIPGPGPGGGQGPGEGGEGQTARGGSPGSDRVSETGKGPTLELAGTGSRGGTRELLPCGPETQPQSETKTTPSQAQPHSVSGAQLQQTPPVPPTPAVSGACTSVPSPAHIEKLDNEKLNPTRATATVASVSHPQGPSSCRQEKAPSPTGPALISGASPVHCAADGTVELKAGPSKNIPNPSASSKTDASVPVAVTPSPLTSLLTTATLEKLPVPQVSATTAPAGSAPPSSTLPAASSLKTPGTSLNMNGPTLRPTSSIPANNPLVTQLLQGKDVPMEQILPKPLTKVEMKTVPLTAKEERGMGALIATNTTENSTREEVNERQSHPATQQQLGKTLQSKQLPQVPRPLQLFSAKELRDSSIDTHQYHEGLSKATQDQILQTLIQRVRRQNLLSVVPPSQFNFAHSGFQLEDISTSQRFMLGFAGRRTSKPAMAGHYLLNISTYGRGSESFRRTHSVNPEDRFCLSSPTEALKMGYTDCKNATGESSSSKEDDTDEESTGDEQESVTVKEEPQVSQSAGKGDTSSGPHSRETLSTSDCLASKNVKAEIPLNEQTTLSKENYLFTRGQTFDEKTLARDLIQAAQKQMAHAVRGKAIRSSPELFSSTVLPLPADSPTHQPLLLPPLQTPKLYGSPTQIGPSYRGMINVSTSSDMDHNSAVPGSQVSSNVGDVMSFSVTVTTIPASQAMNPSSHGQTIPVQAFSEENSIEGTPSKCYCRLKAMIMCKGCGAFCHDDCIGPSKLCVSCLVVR
UniProt Q7Z3C6: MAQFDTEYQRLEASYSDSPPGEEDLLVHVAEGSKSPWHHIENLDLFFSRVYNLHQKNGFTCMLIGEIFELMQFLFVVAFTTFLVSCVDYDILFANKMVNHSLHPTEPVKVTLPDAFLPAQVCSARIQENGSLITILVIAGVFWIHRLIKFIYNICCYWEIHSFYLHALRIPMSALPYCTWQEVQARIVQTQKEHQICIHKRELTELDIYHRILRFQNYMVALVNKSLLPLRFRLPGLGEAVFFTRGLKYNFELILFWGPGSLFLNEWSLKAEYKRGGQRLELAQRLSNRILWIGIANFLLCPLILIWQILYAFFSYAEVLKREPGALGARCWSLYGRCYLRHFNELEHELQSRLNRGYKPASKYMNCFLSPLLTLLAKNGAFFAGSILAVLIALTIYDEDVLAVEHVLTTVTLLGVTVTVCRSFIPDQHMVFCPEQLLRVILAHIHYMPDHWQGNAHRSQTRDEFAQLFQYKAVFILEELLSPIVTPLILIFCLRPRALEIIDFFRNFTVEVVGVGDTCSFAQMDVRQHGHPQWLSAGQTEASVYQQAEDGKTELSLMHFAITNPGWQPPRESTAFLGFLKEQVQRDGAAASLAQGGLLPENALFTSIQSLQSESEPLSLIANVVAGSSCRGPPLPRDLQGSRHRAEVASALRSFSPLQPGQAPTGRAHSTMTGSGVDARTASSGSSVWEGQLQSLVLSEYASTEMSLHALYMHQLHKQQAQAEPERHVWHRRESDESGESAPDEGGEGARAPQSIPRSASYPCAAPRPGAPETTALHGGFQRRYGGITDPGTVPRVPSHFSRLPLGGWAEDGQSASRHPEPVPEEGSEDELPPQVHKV
UniProt Q9P281, 2572-2591: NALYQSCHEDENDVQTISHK
UniProt Q9UIG0, 151-175: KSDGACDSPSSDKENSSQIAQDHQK
UniProt Q5T9A4, 546-566: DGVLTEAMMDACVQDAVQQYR
UniProt O75934: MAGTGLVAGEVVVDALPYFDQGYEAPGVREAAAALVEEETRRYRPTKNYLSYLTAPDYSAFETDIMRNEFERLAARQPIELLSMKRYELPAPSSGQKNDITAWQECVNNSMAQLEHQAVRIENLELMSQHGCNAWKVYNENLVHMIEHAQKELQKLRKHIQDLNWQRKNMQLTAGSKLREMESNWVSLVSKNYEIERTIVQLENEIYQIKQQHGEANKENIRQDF
UniProt Q8TD16, 415-438: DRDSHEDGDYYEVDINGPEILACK
UniProt O95999: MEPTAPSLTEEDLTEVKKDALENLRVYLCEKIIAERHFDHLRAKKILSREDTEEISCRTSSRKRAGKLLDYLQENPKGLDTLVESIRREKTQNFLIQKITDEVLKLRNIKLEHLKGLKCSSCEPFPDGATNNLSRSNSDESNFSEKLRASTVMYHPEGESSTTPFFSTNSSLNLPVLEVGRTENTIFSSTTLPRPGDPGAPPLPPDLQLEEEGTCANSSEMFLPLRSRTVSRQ
UniProt P56134: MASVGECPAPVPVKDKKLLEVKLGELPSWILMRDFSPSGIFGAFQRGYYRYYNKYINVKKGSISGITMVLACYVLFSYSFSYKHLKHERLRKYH
UniProt P23634: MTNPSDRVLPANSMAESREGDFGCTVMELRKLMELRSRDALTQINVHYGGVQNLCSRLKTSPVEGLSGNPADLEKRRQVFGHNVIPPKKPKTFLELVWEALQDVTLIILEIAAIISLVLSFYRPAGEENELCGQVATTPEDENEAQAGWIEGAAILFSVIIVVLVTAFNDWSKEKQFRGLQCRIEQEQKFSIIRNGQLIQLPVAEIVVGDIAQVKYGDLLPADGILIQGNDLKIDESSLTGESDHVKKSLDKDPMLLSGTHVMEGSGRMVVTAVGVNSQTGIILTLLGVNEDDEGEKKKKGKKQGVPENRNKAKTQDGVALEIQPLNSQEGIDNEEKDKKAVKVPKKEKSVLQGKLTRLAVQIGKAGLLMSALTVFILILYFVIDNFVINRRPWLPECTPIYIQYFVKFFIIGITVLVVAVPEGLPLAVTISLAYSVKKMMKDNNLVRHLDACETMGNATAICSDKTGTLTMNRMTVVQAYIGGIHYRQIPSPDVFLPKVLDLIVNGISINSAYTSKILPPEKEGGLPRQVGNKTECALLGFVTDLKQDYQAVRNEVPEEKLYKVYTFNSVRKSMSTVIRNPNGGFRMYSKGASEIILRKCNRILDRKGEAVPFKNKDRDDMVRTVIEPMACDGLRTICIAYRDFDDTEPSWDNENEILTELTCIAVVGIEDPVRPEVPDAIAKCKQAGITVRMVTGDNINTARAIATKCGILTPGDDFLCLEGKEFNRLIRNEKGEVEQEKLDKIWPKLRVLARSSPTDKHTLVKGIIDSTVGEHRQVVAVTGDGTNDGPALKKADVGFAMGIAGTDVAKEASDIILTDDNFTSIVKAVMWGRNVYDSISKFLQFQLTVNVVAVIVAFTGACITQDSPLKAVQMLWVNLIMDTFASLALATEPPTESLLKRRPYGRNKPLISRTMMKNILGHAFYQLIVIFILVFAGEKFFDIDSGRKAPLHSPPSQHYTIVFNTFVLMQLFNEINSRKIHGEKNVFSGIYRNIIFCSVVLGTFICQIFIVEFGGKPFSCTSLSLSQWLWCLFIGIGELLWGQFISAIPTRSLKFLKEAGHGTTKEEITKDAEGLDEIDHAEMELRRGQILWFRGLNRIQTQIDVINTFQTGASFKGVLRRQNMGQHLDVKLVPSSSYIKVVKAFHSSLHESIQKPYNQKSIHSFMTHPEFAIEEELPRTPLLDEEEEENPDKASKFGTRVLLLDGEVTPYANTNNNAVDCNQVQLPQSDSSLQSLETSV

Tests used:
[1] = compound: ClCC(=O)N[C@@H]1CCCc2ccccc12; assay: log2 mean competition ratio of IA-DTB cysteine labelling (DMSO/compound) (log2 ratio); higher = stronger cysteine engagement by compound; settings: treatment time: 4 h, cell line lysate: HEK293T
Description: (§1)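 IA-DTB competitive cysteine chemoproteomics in HEK293T RIPA lysate. Lysates were treated with compound 29 or 30 at 50 or 200 µM for 4 h, then IA-DTB (500 µM, 1 h), trypsin-digested, NeutrAvidin-enriched and analysed by diaPASEF. Competition ratio = intensity DMSO / intensity compound (n=4 treated, n=64 DMSO); binding: mean log2 CR ≥ 1 and p ≤ 0.05 plus QC filters. Target is the cysteine site.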

[2] = compound: ClCC(=O)N[C@H]1CCCc2ccccc12; assay: as above; settings: treatment time: 4 h, cell line lysate: HEK293T
Description: as §1

Target | log2 mean competition ratio ([1]; 50 µM) | log2 mean competition ratio ([1]; 200 µM) | log2 mean competition ratio ([2]; 50 µM) | log2 mean competition ratio ([2]; 200 µM)
ATAD1 C359 (UniProt Q8NBU5) | -0.0916 | -0.0514 | -0.0229 | 0.119
ATG4A C117 (UniProt Q8WYN0) | 0.0484 | 0.0481 | -0.31 | -0.0811
ASPSCR1 C48 (UniProt Q9BZE9) | -0.189 | -0.0426 | -0.121 | 0.0223
BMS1 C556 (UniProt Q14692) | -0.0559 | -0.0645 | -0.0546 | 0.0705
ATP13A2 C401 (UniProt Q9NQ11) | -0.0953 | 0.232 | -0.407 | -0.034
ATAD2 C1388 (UniProt Q6PL18) | -0.305 | 0.397 | -0.0945 | 0.847
ATP6V1C1 C15 (UniProt P21283) | 0.331 | -0.0307 | 0.941 | 0.286
BBX C682 (UniProt Q8WY36) | 0.102 | 0.2 | 0.0692 | 0.104
BAIAP2 C195 (UniProt Q9UQB8) | 0.423 | 0.432 | 0.105 | 0.0241
ATP9B C122 (UniProt O43861) | -0.151 | -0.182 | 0.306 | 0.0133
ATPSCKMT C67 (UniProt Q6P4H8) | -0.105 | -0.0716 | -0.577 | -0.0791
BCOR C979 (UniProt Q6W2J9) | -0.0311 | 0.247 | 0.37 | 0.249
BLM C120 (UniProt P54132) | -0.0367 | -0.0992 | -0.0934 | -0.124
ATR C1198 (UniProt Q13535) | 0.379 | 0.0692 | 0.241 | 0.0677
ATF6B C340 (UniProt Q99941) | -0.00523 | 0.446 | -0.0392 | 0.371
ATRIP C238 (UniProt Q8WXE1) | 0.00799 | 0.132 | -0.29 | 0.225
ASXL2 C266 (UniProt Q76L83) | -0.134 | 0.0225 | -0.213 | 0.0653
BDH2 C145 (UniProt Q9BUT1) | -0.212 | -0.2 | -0.028 | -0.24
ATG16L1 C506 (UniProt Q676U5) | -0.384 | -0.297 | 0.345 | -0.275
AURKA C49 (UniProt O14965) | 0.378 | 0.272 | 0.296 | 0.234
ATRX C450 (UniProt P46100) | 0.242 | -0.317 | 0.197 | -0.306
BAG2 C162 (UniProt O95816) | -0.118 | 0.275 | -0.569 | -0.0937
BHLHE40 C219 (UniProt O14503) | 0.00191 | -0.13 | -0.00838 | -0.0502
ASRGL1 C97 (UniProt Q7L266) | -0.187 | -0.207 | -0.06 | -0.249

Target | log2 mean competition ratio ([1]; 50 µM) | log2 mean competition ratio ([1]; 200 µM) | log2 mean competition ratio ([2]; 50 µM) | log2 mean competition ratio ([2]; 200 µM)
AURKA C290 (UniProt O14965) | 0.306 | -0.134 | 0.09 | -0.148
ATM C2112 (UniProt Q13315) | -0.101 | 0.0632 | -0.259 | 0.115
BCS1L C234 | 0.0938 | -0.133 | 0.0238 | -0.0426
BIRC6 C1293 | 0.0339 | -0.064 | 0.504 | -0.147
ATRX C618 (UniProt P46100) | 0.0115 | -0.0114 | 0.0869 | 0.138
B3GALT6 C32 (UniProt Q96L58) | -0.131 | -0.135 | -0.455 | 0.0525
ATAD2 C1246 (UniProt Q6PL18) | -0.275 | 0.00722 | -0.72 | -0.0309
ATG4C C65 (UniProt Q96DT6) | -0.235 | -0.321 | -0.401 | -0.543
BNIP2 C229 | 0.232 | 0.102 | 0.034 | 0.157
BLZF1 C349 (UniProt Q9H2G9) | -0.234 | -0.00372 | 0.138 | 0.0833
BDP1 C1797 (UniProt A6H8Y1) | -0.0461 | -0.242 | 0.0583 | -0.347
ATP2A2 C498 (UniProt P16615) | 0.132 | -0.0326 | -0.0166 | -0.0852
ATP6V1A C394 (UniProt P38606) | -0.138 | -0.198 | -0.0396 | 0.024
ATG9A C197 (UniProt Q7Z3C6) | 0.0201 | -0.398 | 0.818 | -0.392
ATP2A3 C447 (UniProt Q93084) | -0.417 | -0.0442 | -0.415 | 0.0398
ATF2 C418 (UniProt P15336) | 0.512 | -0.0301 | 0.334 | 0.113
ATXN2 C301 | 0.00981 | 0.222 | -0.507 | 0.049
ATP6V1H C73 (UniProt Q9UI12) | 0.0554 | 0.28 | 0.409 | 0.245
BAHCC1 C2578 (UniProt Q9P281) | -0.09 | -0.234 | -0.265 | -0.154
BCR C1074 (UniProt P11274) | -0.266 | 0.17 | 0.145 | 0.279
ATP13A3 C920 (UniProt Q9H7F0) | 0.258 | 0.247 | -0.003 | 0.23
BAZ1B C156 (UniProt Q9UIG0) | -0.235 | 0.253 | -0.35 | -0.0651
BCAR3 C64 (UniProt O75815) | 0.129 | 0.166 | -0.197 | 0.101
BAZ2A C1037 (UniProt Q9UIF9) | 0.185 | -0.162 | 0.188 | 0.015

Target | log2 mean competition ratio ([1]; 50 µM) | log2 mean competition ratio ([1]; 200 µM) | log2 mean competition ratio ([2]; 50 µM) | log2 mean competition ratio ([2]; 200 µM)
BAZ1B C120 (UniProt Q9UIG0) | -0.258 | -0.16 | -0.693 | -0.182
BAP18 C66 (UniProt Q8IXM2) | -0.157 | -0.174 | -0.0689 | -0.136
BCAP29 C171 (UniProt Q9UHQ4) | -0.118 | -0.00642 | -0.169 | -0.0966
ATAD3B C492 (UniProt Q5T9A4) | 0.182 | 0.376 | -0.461 | -0.0215
BCL2L12 C266 (UniProt Q9HB09) | 0.119 | -0.0413 | 0.267 | -0.106
BHLHB9 C101 | 0.376 | -0.0322 | 0.189 | 0.0147
BCL9 C64 (UniProt O00512) | 0.13 | 0.0851 | 0.0147 | 0.0902
ATXN10 C382 (UniProt Q9UBB4) | 0.331 | 0.314 | 0.655 | 0.324
BCAS2 C132 (UniProt O75934) | 0.392 | -0.0583 | 0.0678 | -0.11
ATPAF2 C141 (UniProt Q8N5M1) | -0.0935 | -0.0583 | -0.251 | -0.019
AXIN1 C221 (UniProt O15169) | 0.0693 | 0.581 | -0.129 | 0.358
BCAS3 C139 (UniProt Q9H6U6) | -0.121 | -0.0231 | 0.258 | 0.125
BAZ1A C586 (UniProt Q9NRL2) | -0.144 | -0.05 | 0.091 | 0.125
BMP2K C32 (UniProt Q9NSY1) | -0.221 | -0.171 | 0.214 | -0.572
BAZ1B C1428 (UniProt Q9UIG0) | 0.221 | 0.00227 | 0.106 | -0.162
ATPAF2 C276 (UniProt Q8N5M1) | -0.0194 | -0.118 | 0.413 | -0.356
ASXL2 C1166 (UniProt Q76L83) | 0.204 | 0.236 | -0.159 | 0.355
BLM C901 (UniProt P54132) | 0.407 | 0.0438 | 0.392 | 0.0909
BAIAP2L1 C229 (UniProt Q9UHR4) | -0.366 | 0.0524 | -0.711 | 0.0776
BACH1 C557 (UniProt O14867) | -0.182 | 0.368 | -0.259 | 0.0653
ATIC C146 (UniProt P31939) | -0.447 | -0.176 | -0.00705 | 0.00442
B4GALT7 C214 (UniProt Q9UBV7) | 0.261 | -0.104 | -0.139 | -0.0773
ATG7 C298 (UniProt O95352) | -0.254 | -0.002 | -0.284 | -0.107
ATAD3B C557 (UniProt Q5T9A4) | 0.422 | -0.0503 | 0.189 | -0.167

Looked up one by one from the entries so far:
Target | log2 mean competition ratio ([1]; 50 µM) | log2 mean competition ratio ([1]; 200 µM) | log2 mean competition ratio ([2]; 50 µM) | log2 mean competition ratio ([2]; 200 µM)
BLM C901 (UniProt P54132) | 0.407 | 0.0438 | 0.392 | 0.0909
ATAD3B C492 (UniProt Q5T9A4) | 0.182 | 0.376 | -0.461 | -0.0215
ATG7 C298 (UniProt O95352) | -0.254 | -0.002 | -0.284 | -0.107
BCL2L12 C266 (UniProt Q9HB09) | 0.119 | -0.0413 | 0.267 | -0.106

Later entries

Target | log2 mean competition ratio ([1]; 50 µM) | log2 mean competition ratio ([1]; 200 µM) | log2 mean competition ratio ([2]; 50 µM) | log2 mean competition ratio ([2]; 200 µM)
BANP C48 (UniProt Q8N9N5) | 0.0713 | -0.0796 | -0.209 | 0.0705
BLOC1S3 C180 (UniProt Q6QNY0) | 0.599 | 0.182 | 0.656 | 0.00922
BICD2 C437 (UniProt Q8TD16) | -0.39 | 0.437 | -0.203 | 0.104
BCL10 C57 (UniProt O95999) | -0.178 | 0.16 | 0.265 | 0.354
ATG14 C17 (UniProt Q6ZNE5) | 0.204 | 0.0153 | 0.261 | -0.0725
BCDIN3D C97 (UniProt Q7Z5W3) | 0.0711 | 0.362 | -0.287 | 0.0534
BAZ1B C1348 (UniProt Q9UIG0) | -0.0126 | -0.141 | 0.047 | -0.104
ATM C1736 (UniProt Q13315) | -0.0681 | -0.00532 | -0.147 | 0.0757
ASXL3 C838 (UniProt Q9C0F0) | -0.264 | -0.0297 | -0.088 | 0.168
BAHD1 C535 (UniProt Q8TBE0) | 0.325 | 0.0517 | 0.0994 | -0.012
BIRC6 C3830 | 0.256 | -0.386 | -0.258 | 0.174
ATP5MF C7 (UniProt P56134) | -0.265 | -0.202 | 0.145 | -0.0818
ATP2A2 C669 (UniProt P16615) | -0.133 | 0.0568 | 0.587 | 0.384
BAZ1B C1045 (UniProt Q9UIG0) | 0.316 | -0.131 | 0.43 | 0.135
BCORL1 C617 (UniProt Q5H9F3) | -0.18 | -0.00428 | 0.26 | -0.013
AZI2 C332 (UniProt Q9H6S1) | 0.0983 | 0.192 | 0.0273 | 0.478
ASRGL1 C176 (UniProt Q7L266) | -0.0702 | 0.141 | -0.356 | 0.13
BCAS3 C258 (UniProt Q9H6U6) | 0.0798 | -0.266 | 0.822 | -0.156
BMP2K C323 (UniProt Q9NSY1) | 0.392 | -0.301 | 0.255 | -0.335
ATAD5 C1430 (UniProt Q96QE3) | -0.157 | 0.215 | -0.322 | 0.0119
BBS2 C662 | 0.274 | 0.0491 | 0.0466 | -0.066
ATP2B4 C24 (UniProt P23634) | -0.144 | -0.394 | 0.0161 | 0.0319
BLM C396 (UniProt P54132) | -0.199 | 0.151 | -0.231 | 0.243
